Measured values taken from PubChem BioAssay AID248 (DTP/NCI, 2004).
The list shows only some results of the screen, not a fair sample: it gathers tests that were run many times, whatever their T/C, doses with no T/C, and many T/C values between a quarter and a half above the control. Other doses and runs of a compound stand elsewhere. T/C is the treated group as % of the vehicle group. Some entries give survivors of the animals treated and no T/C: the source files T/C as zero there, which appears to mark a toxic dose or a test without result, not a measured value. Some survivor counts are full or nearly so, which does not show that the dose was tolerated: the source hardly ever lists a survival T/C far under the control, and the zero likely stands for such cases as well. Counts of survivors are from the toxicity check (mostly the fifth day) where no day follows; animals may have died later. Schedules are NCI's codes, taken here to give the interval after Q, in days (D) or hours (H), and the number of doses after X. Some schedules carry Z or #; the key to these is not given. Some doses were run more than once; the results are listed from low to high. Where survival is the endpoint, this PubChem deposit counts one and a half times the control or more as active, and values a quarter to a half above the control carry no call in these data; other NCI protocols may use other cut-offs. Some T/C values carry the count of animals alive at the toxicity check (mostly the fifth day); where none is given, no animal had died by that day.

System: L1210 leukemia ip in BDF1 mice, survival T/C
Assay: NCI In Vivo Anticancer Drug Screen. Data for tumor model L1210 Leukemia (intraperitoneal) in B6D2F1 (BDF1) mice
Conditions: higher T/C = longer survival
[1] = T/C endpoint: mean survival time, dose: 160.0 mg/kg/injection, schedule: Q## X001 (ip), vehicle: saline

CC[C@](O)(C(=O)O)c1cc2n(c(=O)c1CO)Cc1cc3ccccc3nc1-2
T/C [1]: 136 % of control [5 of 6 alive]
survivor count [1]: 3 of 6
survivor count (T/C endpoint: mean survival time, dose: 160.0 mg/kg/injection, schedule: Q## X002 (ip), vehicle: saline): 2 of 10
survivor count (T/C endpoint: mean survival time, dose: 160.0 mg/kg/injection, schedule: Q## X008 (ip), vehicle: saline): 1 of 10
survivor count (T/C endpoint: mean survival time, dose: 160.0 mg/kg/injection, schedule: Q## X008 (oral), vehicle: water): 0 of 10
survivor count (T/C endpoint: mean survival time, dose: 200.0 mg/kg/injection, schedule: Q01DX001 (ip), vehicle: saline): 2 of 6
survivor count (T/C endpoint: mean survival time, dose: 200.0 mg/kg/injection, schedule: Q04DX002 (ip), vehicle: saline): 1 of 3
survivor count (T/C endpoint: mean survival time, dose: 320.0 mg/kg/injection, schedule: Q## X001 (ip), vehicle: saline): 0 of 6 and 2 of 6
survivor count (T/C endpoint: mean survival time, dose: 320.0 mg/kg/injection, schedule: Q## X003 (ip), vehicle: saline): 3 of 10
survivor count (T/C endpoint: mean survival time, dose: 400.0 mg/kg/injection, schedule: Q04DX002 (ip), vehicle: saline): 0 of 3
survivor count (T/C endpoint: mean survival time, dose: 640.0 mg/kg/injection, schedule: Q01DX001 (ip), vehicle: saline): 5 of 10
survivor count (T/C endpoint: mean survival time, dose: 640.0 mg/kg/injection, schedule: Q## X001 (ip), vehicle: saline): 0 of 6
T/C (T/C endpoint: mean survival time, dose: 500.0 micrograms/kg/injection, schedule: Q01DX Z (ip), vehicle: saline): 133 % of control
T/C (T/C endpoint: median survival time, dose: 5.0 mg/kg/injection, schedule: Q04DX003 (ip), vehicle: saline): 128 % of control
T/C (T/C endpoint: median survival time, dose: 6.25 mg/kg/injection, schedule: Q04DX003 (ip), vehicle: saline): 133 % of control
T/C (T/C endpoint: median survival time, dose: 10.0 mg/kg/injection, schedule: Q04DX003 (ip), vehicle: saline, evaluated on day 5): 165 % of control
T/C (T/C endpoint: median survival time, dose: 10.0 mg/kg/injection, schedule: Q04DX003 (ip), vehicle: saline, evaluated on day 7): 179 % of control
T/C (T/C endpoint: median survival time, dose: 10.0 mg/kg/injection, schedule: Q04DX003 (ip), vehicle: saline, evaluated on day 30): 161 % of control
T/C (T/C endpoint: median survival time, dose: 10.0 mg/kg/injection, schedule: Q04DX003 (ip), vehicle: saline, evaluated on day 60): 155 % of control
T/C (T/C endpoint: median survival time, dose: 18.0 mg/kg/injection, schedule: Q04DX003 (ip), vehicle: saline, evaluated on day 7): 139 % of control
T/C (T/C endpoint: median survival time, dose: 18.0 mg/kg/injection, schedule: Q04DX003 (ip), vehicle: saline, evaluated on day 50): 135 % of control
T/C (T/C endpoint: median survival time, dose: 20.0 mg/kg/injection, schedule: Q04DX003 (ip), vehicle: saline, evaluated on day 5): 199 % of control
T/C (T/C endpoint: median survival time, dose: 20.0 mg/kg/injection, schedule: Q04DX003 (ip), vehicle: saline, evaluated on day 7): 199 % of control
T/C (T/C endpoint: median survival time, dose: 20.0 mg/kg/injection, schedule: Q04DX003 (ip), vehicle: saline, evaluated on day 30): 194 % of control
T/C (T/C endpoint: median survival time, dose: 20.0 mg/kg/injection, schedule: Q04DX003 (ip), vehicle: saline, evaluated on day 60): 183 % of control
T/C (T/C endpoint: median survival time, dose: 30.0 mg/kg/injection, schedule: Q01DX001 (ip), vehicle: saline, evaluated on day 7): 137 % of control
T/C (T/C endpoint: median survival time, dose: 30.0 mg/kg/injection, schedule: Q01DX001 (ip), vehicle: saline, evaluated on day 50): 135 % of control
T/C (T/C endpoint: median survival time, dose: 30.0 mg/kg/injection, schedule: Q04DX003 (ip), vehicle: saline, evaluated on day 7): 145 % of control
T/C (T/C endpoint: median survival time, dose: 30.0 mg/kg/injection, schedule: Q04DX003 (ip), vehicle: saline, evaluated on day 50): 140 % of control
T/C (T/C endpoint: median survival time, dose: 40.0 mg/kg/injection, schedule: Q04DX003 (ip), vehicle: saline, evaluated on day 5): 251 % of control
T/C (T/C endpoint: median survival time, dose: 40.0 mg/kg/injection, schedule: Q04DX003 (ip), vehicle: saline, evaluated on day 7): 245 % of control
T/C (T/C endpoint: median survival time, dose: 40.0 mg/kg/injection, schedule: Q04DX003 (ip), vehicle: saline, evaluated on day 30): 244 % of control
T/C (T/C endpoint: median survival time, dose: 40.0 mg/kg/injection, schedule: Q04DX003 (ip), vehicle: saline, evaluated on day 60): 222 % of control
T/C (T/C endpoint: median survival time, dose: 50.0 mg/kg/injection, schedule: Q04DX003 (ip), vehicle: saline, evaluated on day 7): 139 % of control
T/C (T/C endpoint: median survival time, dose: 50.0 mg/kg/injection, schedule: Q04DX003 (ip), vehicle: saline, evaluated on day 50): 135 % of control
T/C (T/C endpoint: median survival time, dose: 50.0 mg/kg/injection, schedule: Q04DX003 (ip), vehicle: saline, evaluated on day 54): 166 % of control
T/C (T/C endpoint: median survival time, dose: 50.0 mg/kg/injection, schedule: Q04DX003 (ip), vehicle: saline, evaluated on day 60): 238 % of control
T/C (T/C endpoint: median survival time, dose: 80.0 mg/kg/injection, schedule: Q04DX003 (ip), vehicle: saline, evaluated on day 5): 102 % of control
T/C (T/C endpoint: median survival time, dose: 80.0 mg/kg/injection, schedule: Q04DX003 (ip), vehicle: saline, evaluated on day 7): 172 % of control
T/C (T/C endpoint: median survival time, dose: 80.0 mg/kg/injection, schedule: Q04DX003 (ip), vehicle: saline, evaluated on day 30): 100 % of control
T/C (T/C endpoint: median survival time, dose: 80.0 mg/kg/injection, schedule: Q04DX003 (ip), vehicle: saline, evaluated on day 60): 177 % of control
T/C (T/C endpoint: median survival time, dose: 83.3 mg/kg/injection, schedule: Q01DX001 (ip), vehicle: saline, evaluated on day 7): 134 % of control
T/C (T/C endpoint: median survival time, dose: 83.3 mg/kg/injection, schedule: Q01DX001 (ip), vehicle: saline, evaluated on day 50): 130 % of control
T/C (T/C endpoint: median survival time, dose: 148.0 mg/kg/injection, schedule: Q01DX001 (ip), vehicle: saline): 131 % of control
survivor count (T/C endpoint: median survival time, dose: 200.0 mg/kg/injection, schedule: Q07DX003 (ip), vehicle: saline): 1 of 8
survivor count (T/C endpoint: median survival time, dose: 400.0 mg/kg/injection, schedule: Q07DX003 (ip), vehicle: saline): 7 of 8
